Experimental data published in article doi:10.1101/2025.01.01.631040.
These are yes or no findings as the source states them, for the method shown. Binding seen in cells or lysates may run through a third protein. Some results given as binding are weak or reduced against the parent protein; the word gives no strength. Sequences can lack the tags named with a protein.

Amino acid sequences for entries named in this document (tags omitted). A change or cut given only in a name is not applied to a line headed by its entry.
UniProt Q9LS94: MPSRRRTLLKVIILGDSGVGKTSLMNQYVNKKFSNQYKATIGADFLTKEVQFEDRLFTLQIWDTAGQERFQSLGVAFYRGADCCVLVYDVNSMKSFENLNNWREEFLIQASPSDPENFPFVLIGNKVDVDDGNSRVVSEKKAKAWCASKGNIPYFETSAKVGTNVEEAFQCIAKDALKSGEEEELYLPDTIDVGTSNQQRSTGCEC
UniProt O04157: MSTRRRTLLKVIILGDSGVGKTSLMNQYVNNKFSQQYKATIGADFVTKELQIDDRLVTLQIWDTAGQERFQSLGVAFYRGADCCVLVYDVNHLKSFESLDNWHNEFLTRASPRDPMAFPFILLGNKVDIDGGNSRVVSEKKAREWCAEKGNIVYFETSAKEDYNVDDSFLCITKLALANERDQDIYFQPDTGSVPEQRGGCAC
UniProt Q9C820: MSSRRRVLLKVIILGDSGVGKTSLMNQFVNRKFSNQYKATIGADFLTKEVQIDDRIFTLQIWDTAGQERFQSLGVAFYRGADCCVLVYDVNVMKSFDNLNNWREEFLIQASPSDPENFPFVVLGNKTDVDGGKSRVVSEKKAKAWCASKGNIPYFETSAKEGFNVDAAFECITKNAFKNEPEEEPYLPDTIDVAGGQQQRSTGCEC
UniProt Q9XI98: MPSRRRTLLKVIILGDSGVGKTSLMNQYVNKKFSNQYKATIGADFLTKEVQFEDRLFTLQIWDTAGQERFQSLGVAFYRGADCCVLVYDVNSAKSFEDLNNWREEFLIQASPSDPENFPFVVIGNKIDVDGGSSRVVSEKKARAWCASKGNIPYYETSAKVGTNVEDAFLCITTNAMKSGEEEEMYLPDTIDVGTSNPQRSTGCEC

biological target: T1, ATG8h fused to cLUC (Arabidopsis thaliana) (UniProt Q8S925); assay: split reporter
T1 sequence: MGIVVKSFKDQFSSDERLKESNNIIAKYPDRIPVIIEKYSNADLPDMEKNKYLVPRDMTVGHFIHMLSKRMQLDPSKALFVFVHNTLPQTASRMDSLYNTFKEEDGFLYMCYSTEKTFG

| binding | Substance |
| --- | --- |
| binds | RABG3f-nLUC (from UniProt Q9LS94 1-206) |

biological target: T2, cLUC-ATG8a (Arabidopsis thaliana) (UniProt Q8LEM4); assay: split reporter
T2 sequence: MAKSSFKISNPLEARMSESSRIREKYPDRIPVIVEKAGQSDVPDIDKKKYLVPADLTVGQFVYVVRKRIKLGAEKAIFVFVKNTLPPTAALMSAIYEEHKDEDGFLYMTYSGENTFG

| Substance | binding |
| --- | --- |
| RABG3b fused to nLUC (from UniProt O04157 1-203) | binds |
| RABG3f(CA)-nLUC, GTP-bound, constitutive active variant (Q67L) (from UniProt Q9LS94 1-206) | binds |
| RABG3f-nLUC (from UniProt Q9LS94 1-206) | binds |
| RABG3f^mAIM1 (F96A L99A) fused to nLUC (from UniProt Q9LS94 1-206) | binds |
| RABG3f^mAIM2 (F169A I172A) fused to nLUC (from UniProt Q9LS94 1-206) | binds |

Second part, the substance after the results:

| binding | Substance |
| --- | --- |
| binds | RABG3d fused to nLUC (from UniProt Q9C820 1-206) |
| binds | RABG3e fused to nLUC (from UniProt Q9XI98 1-206) |
| binds | RABG3f(DN)-nLUC, GDP-bound, dominant-negative variant (T22N) (from UniProt Q9LS94 1-206) |
